The supplement of paper PMC3334620
In all, about 33,000 sequences were measured (“E-score (-0.5 to 0.5)”: median about -8e-05, highest 2% from about 0.23 on). The list shows a part of the results.

Biological target: T1, Nrg2 (UniProt P38082)
T1 sequence: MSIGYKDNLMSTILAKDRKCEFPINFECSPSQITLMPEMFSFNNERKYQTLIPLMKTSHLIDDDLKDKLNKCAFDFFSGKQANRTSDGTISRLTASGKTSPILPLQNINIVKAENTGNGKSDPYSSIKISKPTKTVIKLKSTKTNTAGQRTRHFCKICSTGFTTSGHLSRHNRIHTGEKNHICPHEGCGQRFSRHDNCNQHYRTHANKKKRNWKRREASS
Experiment: PBM E-score (8-mer binding enrichment) (E-score (-0.5 to 0.5)); higher = stronger / more preferred TF binding
Details: protein concentration: 100 nM; construct: GST-full length
Procedure, shortened: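 GST-tagged yeast TFs (full-length or DNA-binding domain) were made by PURExpress in vitro transcription/translation and applied at about 100-200 nM to universal all-10-mer Agilent arrays. The arrays were made double-stranded by primer extension, on fresh or once-stripped slides. Bound protein was detected with fluorescent anti-GST, and scans were normalised with masliner. Each ungapped eight-base word, pooled with its reverse complement, received an E-score (modified Wilcoxon-Mann-Whitney statistic) from the Universal PBM Analysis Suite.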

Sequence	PBM E-score
ATGCCCCG	0.0227
CCTAAAGA	-0.255
GAGATTCA	0.033
TGGAAACA	-0.0315
ACGAACAC	-0.00267
AGTGGCTA	-0.0624
GTAATCGA	0.154
CAATGACG	-0.232
TATTATCA	0.0123
AGGCCTTA	-0.154
ATGTAAGC	0.176
TCTAATCA	0.139
CATGCTTA	-0.125
AAGCGTCT	-0.22
CTACGTAG	-0.103
GGATTTTA	-0.084
CACCGTAC	0.0768
AAATCCTG	0.0103
CGGAACTC	-0.045
CCAGCCGA	-0.127
ACTATCAA	0.0835
ACAAGCGG	0.208
ATCATGAC	0.197
ATGAGAAC	0.0898
GATGTCAC	0.119

Sequence	PBM E-score
ACCGTAAT	-0.039
AATAGACC	0.00257
AAGATCTT	-0.0257
CTCTGCAG	-0.0279
CTTTTTAA	-0.163
CGGCGTCA	-0.0514
CAGGACTA	-0.0199
CGATTTCA	-0.059
CAACTATG	0.137
CCCTTGAC	-0.00413
CTCGTTTA	0.0281
CGTTTCCA	-0.133
ATTTCTCA	0.0394
TCAAATAA	0.0394
AGGGTATA	0.219
ATGGGTTC	-0.0692
ACTGTAGA	0.122
CAGGTCGC	0.00834
CGGGGTAC	-0.17
CTCCTTTC	-0.117
CAGCGTAC	-0.0506
AAGCTTTA	0.0329
ACACTTCC	0.0362
ACCGTGTC	-0.118
CCAAGGCA	-0.0373

Sequence	PBM E-score
GACCCAAC	0.0918
CTCCGGCA	-0.0118
GGGTCGAC	0.11
AATGTCGC	0.103
ATCACTTG	0.00546
GCGGGGGA	-0.182
GGTCGCAA	0.00495
CCATCACC	-0.00416
ATATAGGA	0.0162
GCCTATCA	0.096
ATGTGATC	0.0705
CGTATAAA	0.097
CTACGCGC	0.16
GCGATTGA	0.0715
TAAGGCCA	-0.128
GCGGTGAC	-0.0442
TCTGCGAA	-0.237
ACAGTTCT	0.0391
CGAGCAAG	-0.0684
ACGTGTCA	-0.0606
CAACGCCG	-0.0413
CCACAAGC	-0.208
GACTCAGC	-0.114
ACTCAGTA	0.166
AAGGCACC	-0.0385

Quoted from the listing:
PBM E-score with ATGTGATC is entered as 0.0705
PBM E-score with TCTGCGAA is entered as -0.237
PBM E-score with GCGGTGAC is entered as -0.0442
PBM E-score with TAAGGCCA is entered as -0.128
PBM E-score with CGTATAAA is entered as 0.097
PBM E-score with ATATAGGA is entered as 0.0162

(listing goes on)

Sequence	PBM E-score
CTACTCAA	0.126
CCGTGTAA	-0.0996
CAGCTTTC	-0.114
GCGGGGCA	-0.0234
AACAGAAG	-0.093
GACGACCC	0.14
CTGCTCTC	-0.0281
GCATCTAC	0.108
CGCCGTAC	0.00964
ACTCCGAG	0.04
GAGGGTAA	-0.125
ACCTCGGG	0.00828
ACGATTCT	0.0802
GTTTTATA	0.0933
ACTCAATG	-0.0524
GACAGATC	0.19
ACAAAACC	0.246
CATTTATC	0.0481
AACTCCCT	-0.101
ACGTGAGT	-0.0537
ACTGGGAA	0.0642
GAAGTATC	0.209
AAGTTATG	0.159
ATCTACGA	-0.192
CAACCAGG	-0.0897

Sequence	PBM E-score
CCGGTAGA	-0.083
AATCGCTC	-0.17
ACCTATAT	0.236
AGAGCACA	0.0882
TACGACCA	-0.0683
CATTTTAA	0.147
CCGCGATA	0.117
AGCTCCAG	-0.0523
GCCGGTTA	-0.136
GCACGAGA	0.0155
CACGTGAC	-0.137
CAATTAGA	0.145
GCTTTTGA	-0.175
CATCATGG	0.0628
AATAATCA	0.143
CTCTTCAC	0.0494
CCATCGGC	-0.086
AGAGAACT	-0.141
ACAGCGTG	-0.0786
ACTTGGTG	0.0161
CCGGTGTC	-0.204
GACTTCAA	-0.118
CGCACGAA	0.168
CAAGTCGA	-0.124
AGCCCGAA	-0.0291

Sequence	PBM E-score
AAGAGCAG	-0.0544
GATCGTCA	-0.121
GGTTTATA	0.0316
ACTCGGAT	0.0729
GCACAACA	0.107
TCGCTCCA	-0.0731
AAGCTATG	-0.129
GGTCGCTA	-0.105
AGGACGCA	0.181
CCCCGCGG	0.0578
ACCACTGC	-0.131
GTAGATAA	0.0965
TCCTCCGA	-0.284
ATATCAGA	0.035
TCGCCGAA	-0.124
CGTGTTTC	-0.179
TAAGTCCA	-0.00502
ACACAAGT	0.0773
GACGCCCC	-0.0205
CCAGATGC	-0.215
ATTCTCTA	0.0337
CCAAAGAC	-0.119
ATAACCAG	0.139
ATCGCCAG	-0.0475
AATGAGAT	0.171

Sequence	PBM E-score
AAGCGTAG	-0.0861
GCTAGACC	-0.264
ATGCAGGA	-0.0413
GTTACGTA	-0.287
CATAGAAA	0.175
AACGATGT	0.125
CAGGCATG	0.0164
GCTCTGGA	0.186
AGCTCCCT	-0.228
AGCGATCC	-0.129
CAGCGACG	-0.0524
AGGAGACG	-0.185
GCGGGATA	0.0702
CGCAAGAC	-0.0982
ATACATAA	0.0727
GCCATATA	0.102
CCACACAG	0.133
GGTAAATA	-0.0476
CCAATTCA	0.147
CTTAAGTA	0.0538
CATGTGCA	-0.227
AGCATGGC	-0.114
